PubChem BioAssay AID1508597 – Cure First – 2020

Test: 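Genes whose silencing sensitises or protects ovarian cancer cells against rucaparib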 (primary screen)
Cell system: human ovarian carcinoma lines grown from tumours: OCI-P5x (papillary serous) and OCI-C5x (clear cell)
Reagents: siRNA pool against human genes, 1.25 pmol siRNA per well
Duration: 72 h or 96 h, depending on the cell culture
Treatment: rucaparib 20 µM (about IC30) or vehicle, present until read-out
Measurement: 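ATP luminescence measured at 72 or 96 h according to the culture, then normalised and expressed as percent viability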
Reading the numbers: viability, normalised: higher = more viable cells remaining
Hit rule: 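Active when normalised viability falls below 80 percent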
Calls: active = viability under 80%; inactive = viability 80% or more
Here is a random part of about 2,100 reagents tested. 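Calls flag viability under 80% in either arm, not effects specific to rucaparib; the reference for percent is not stated.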 Not stated in the record: the 100% reference.

{"target": "FOXC2 (forkhead box C2)", "rucaparib or vehicle": "Rucaparib", "cell line": "OCI-C5x (clear cell)", "technical replicate": "1", "viability, normalised (%)": 34.2, "Outcome": "active"}
{"target": "FOXC2 (forkhead box C2)", "rucaparib or vehicle": "Rucaparib", "cell line": "OCI-C5x (clear cell)", "technical replicate": "2", "viability, normalised (%)": 42, "Outcome": "active"}
{"target": "FOXC2 (forkhead box C2)", "rucaparib or vehicle": "Rucaparib", "cell line": "OCI-C5x (clear cell)", "technical replicate": "3", "viability, normalised (%)": 37.5, "Outcome": "active"}
{"target": "FOXC2 (forkhead box C2)", "rucaparib or vehicle": "Rucaparib", "cell line": "OCI-P5x (serous)", "technical replicate": "1", "viability, normalised (%)": 48.4, "Outcome": "active"}
{"target": "FOXC2 (forkhead box C2)", "rucaparib or vehicle": "Rucaparib", "cell line": "OCI-P5x (serous)", "technical replicate": "2", "viability, normalised (%)": 52.2, "Outcome": "active"}
{"target": "FOXC2 (forkhead box C2)", "rucaparib or vehicle": "Rucaparib", "cell line": "OCI-P5x (serous)", "technical replicate": "3", "viability, normalised (%)": 51.8, "Outcome": "active"}
{"target": "FOXC2 (forkhead box C2)", "rucaparib or vehicle": "Vehicle", "cell line": "OCI-C5x (clear cell)", "technical replicate": "1", "viability, normalised (%)": 50.7, "Outcome": "active"}
{"target": "FOXC2 (forkhead box C2)", "rucaparib or vehicle": "Vehicle", "cell line": "OCI-C5x (clear cell)", "technical replicate": "2", "viability, normalised (%)": 40.7, "Outcome": "active"}
{"target": "FOXC2 (forkhead box C2)", "rucaparib or vehicle": "Vehicle", "cell line": "OCI-C5x (clear cell)", "technical replicate": "3", "viability, normalised (%)": 45.6, "Outcome": "active"}
{"target": "FOXC2 (forkhead box C2)", "rucaparib or vehicle": "Vehicle", "cell line": "OCI-P5x (serous)", "technical replicate": "1", "viability, normalised (%)": 52, "Outcome": "active"}
{"target": "FOXC2 (forkhead box C2)", "rucaparib or vehicle": "Vehicle", "cell line": "OCI-P5x (serous)", "technical replicate": "2", "viability, normalised (%)": 47.7, "Outcome": "active"}
{"target": "FOXC2 (forkhead box C2)", "rucaparib or vehicle": "Vehicle", "cell line": "OCI-P5x (serous)", "technical replicate": "3", "viability, normalised (%)": 74.2, "Outcome": "active"}

Next part; the last 2 above are carried over.
{"target": "FOXC2 (forkhead box C2)", "rucaparib or vehicle": "Vehicle", "cell line": "OCI-P5x (serous)", "technical replicate": "2", "viability, normalised (%)": 47.7, "Outcome": "active"}
{"target": "FOXC2 (forkhead box C2)", "rucaparib or vehicle": "Vehicle", "cell line": "OCI-P5x (serous)", "technical replicate": "3", "viability, normalised (%)": 74.2, "Outcome": "active"}
{"target": "PFKP (phosphofructokinase, platelet)", "rucaparib or vehicle": "Rucaparib", "cell line": "OCI-C5x (clear cell)", "technical replicate": "1", "viability, normalised (%)": 56.8, "Outcome": "active"}
{"target": "PFKP (phosphofructokinase, platelet)", "rucaparib or vehicle": "Rucaparib", "cell line": "OCI-C5x (clear cell)", "technical replicate": "2", "viability, normalised (%)": 61.1, "Outcome": "active"}
{"target": "PFKP (phosphofructokinase, platelet)", "rucaparib or vehicle": "Rucaparib", "cell line": "OCI-C5x (clear cell)", "technical replicate": "3", "viability, normalised (%)": 61.5, "Outcome": "active"}
{"target": "PFKP (phosphofructokinase, platelet)", "rucaparib or vehicle": "Rucaparib", "cell line": "OCI-P5x (serous)", "technical replicate": "1", "viability, normalised (%)": 120, "Outcome": "inactive"}
{"target": "PFKP (phosphofructokinase, platelet)", "rucaparib or vehicle": "Rucaparib", "cell line": "OCI-P5x (serous)", "technical replicate": "2", "viability, normalised (%)": 129, "Outcome": "inactive"}
{"target": "PFKP (phosphofructokinase, platelet)", "rucaparib or vehicle": "Rucaparib", "cell line": "OCI-P5x (serous)", "technical replicate": "3", "viability, normalised (%)": 121, "Outcome": "inactive"}
{"target": "PFKP (phosphofructokinase, platelet)", "rucaparib or vehicle": "Vehicle", "cell line": "OCI-C5x (clear cell)", "technical replicate": "1", "viability, normalised (%)": 45.4, "Outcome": "active"}
{"target": "PFKP (phosphofructokinase, platelet)", "rucaparib or vehicle": "Vehicle", "cell line": "OCI-C5x (clear cell)", "technical replicate": "2", "viability, normalised (%)": 51.8, "Outcome": "active"}
{"target": "PFKP (phosphofructokinase, platelet)", "rucaparib or vehicle": "Vehicle", "cell line": "OCI-C5x (clear cell)", "technical replicate": "3", "viability, normalised (%)": 44.6, "Outcome": "active"}
{"target": "PFKP (phosphofructokinase, platelet)", "rucaparib or vehicle": "Vehicle", "cell line": "OCI-P5x (serous)", "technical replicate": "1", "viability, normalised (%)": 89.5, "Outcome": "inactive"}
{"target": "PFKP (phosphofructokinase, platelet)", "rucaparib or vehicle": "Vehicle", "cell line": "OCI-P5x (serous)", "technical replicate": "2", "viability, normalised (%)": 69.6, "Outcome": "active"}
{"target": "PFKP (phosphofructokinase, platelet)", "rucaparib or vehicle": "Vehicle", "cell line": "OCI-P5x (serous)", "technical replicate": "3", "viability, normalised (%)": 68.3, "Outcome": "active"}
